Assay results published in patent publication US5543496A, “Cyclic bradykinin antagonist peptides” (Scios Nova Inc., priority 1994, dated 1996).
At least one structure is not confirmed: it was looked up by name or label, or the drawing left a doubt. Starred links: 1 amine or outer side, 2 acyl side, 3 side chain; linkers in the order of their positions; H or OH if unused. Positions of bridges follow the written chain, without caps; N, C: chain ends. Non-standard residues stand in square brackets, D forms with d. Residues, ends and D or L forms follow the SMILES beside them. X1 = O=C([C@H]1C[C@H](Sc2ccccc2)CN1[*:1])[*:2]; Oic = O=C(O)[C@@H]1C[C@@H]2CCCC[C@@H]2N1

Target: T1, bradykinin receptor (Cavia porcellus, UniProt O70526)
T1 construct: from tissue; host or cells: guinea pig terminal ileum, washed membrane homogenate
T1 sequence (O70526 1-372): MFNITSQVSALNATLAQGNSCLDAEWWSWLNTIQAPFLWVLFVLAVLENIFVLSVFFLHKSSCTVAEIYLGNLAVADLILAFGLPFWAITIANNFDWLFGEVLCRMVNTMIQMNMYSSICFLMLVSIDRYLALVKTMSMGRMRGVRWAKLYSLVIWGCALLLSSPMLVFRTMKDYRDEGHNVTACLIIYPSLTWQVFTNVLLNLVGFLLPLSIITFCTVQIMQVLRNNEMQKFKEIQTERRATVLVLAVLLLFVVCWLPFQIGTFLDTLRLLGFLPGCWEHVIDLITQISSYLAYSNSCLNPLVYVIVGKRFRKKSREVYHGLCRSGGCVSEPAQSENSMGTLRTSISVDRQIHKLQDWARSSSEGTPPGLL
Assay: 3H-Bradykinin binding assay, guinea pig ileum membranes
Conditions: displacement of 3H-bradykinin, terminal ileum homogenate of male Hartley guinea pigs, 90 min ambient temperature
Experimental: Binding of ^3 H-Bradykinin was performed using the method of D. C. Manning, R. Vavrek, J. M. Stewart, and S. H. Snyder, J. Pharmacol. Exp. Ther., (1986), 237, 504. The tissues used in the binding assay were terminal ileum from male Hartley guinea pigs (150-350 g). After dissection, tissues were placed in 20 vol of ice-cold buffer A (25 mM TES containing 0.2 g/L of 1,10-phenanthroline adjusted of pH 6.8 with ammonium hydroxide) and homogenized using a Ploytron Tissumizer at setting 6 for 15 sec. The homogenate was centrifuged at 50,000×g for 10 min, the supernatant discarded, and the pellet resuspended in ice-cold buffer A by homogenization with the Polytron. Each tissue was homogenized and centrifuged three times. The final pellet was resuspended in buffer A containing bovine serum albumin (1 g/L) and Bacitracin (0.14 g/L) to a final volume of 170 mL/g of the original tissue weight. […] Filters were dissolved in Ready-Safe Fluor (Beckman) for at least 90 min before quantitation by liquid scintillation spectrometry. Kd values were determined using saturation binding and analysis by EBDA (G. A. MacPherson, J. Pharmacol. Methods, (1985), 213), followed by LIGAND (P. J. Munson, D. Rodbard, Anal. Biochem., (1980), 220). Ki values were determined using competitive analysis followed by EBDA and LIGAND. […]

SMILES: N=C(N)NCCC[C@@H](N)C(=O)N[C@@H](CCCNC(=N)N)C(=O)N[C@H]1CSSC[C@@H](C(=O)N[C@@H](CO)C(=O)N2C[C@@H](Sc3ccccc3)C[C@@H]2C(=O)N2[C@H](C(=O)N[C@@H](CCCNC(=N)N)C(=O)O)C[C@@H]3CCCC[C@@H]32)NC(=O)CNC(=O)[C@@H]2CCCN2C1=O (H-[dR]RCPGCS[X1][Oic]R-OH; disulfide 3-6; N-terminus assumed)
- Ki: 2.15 ± 0.84 nM
